The target of the experiment is nucleolin (human (endogenous in MKN-45)) (UniProt P19338). As to the kind of experiment: co-IP; anti-nucleolin antibody coupled by EDC to magnetic particles, incubated with MKN-45 cell lysate overnight at 4 °C, washed twice with 1x PBS, Western blot; bare magnetic particles as control.

By UniProt entry, the sequences of proteins in these tests, tags left out. Residues count along the entry.
UniProt P19338: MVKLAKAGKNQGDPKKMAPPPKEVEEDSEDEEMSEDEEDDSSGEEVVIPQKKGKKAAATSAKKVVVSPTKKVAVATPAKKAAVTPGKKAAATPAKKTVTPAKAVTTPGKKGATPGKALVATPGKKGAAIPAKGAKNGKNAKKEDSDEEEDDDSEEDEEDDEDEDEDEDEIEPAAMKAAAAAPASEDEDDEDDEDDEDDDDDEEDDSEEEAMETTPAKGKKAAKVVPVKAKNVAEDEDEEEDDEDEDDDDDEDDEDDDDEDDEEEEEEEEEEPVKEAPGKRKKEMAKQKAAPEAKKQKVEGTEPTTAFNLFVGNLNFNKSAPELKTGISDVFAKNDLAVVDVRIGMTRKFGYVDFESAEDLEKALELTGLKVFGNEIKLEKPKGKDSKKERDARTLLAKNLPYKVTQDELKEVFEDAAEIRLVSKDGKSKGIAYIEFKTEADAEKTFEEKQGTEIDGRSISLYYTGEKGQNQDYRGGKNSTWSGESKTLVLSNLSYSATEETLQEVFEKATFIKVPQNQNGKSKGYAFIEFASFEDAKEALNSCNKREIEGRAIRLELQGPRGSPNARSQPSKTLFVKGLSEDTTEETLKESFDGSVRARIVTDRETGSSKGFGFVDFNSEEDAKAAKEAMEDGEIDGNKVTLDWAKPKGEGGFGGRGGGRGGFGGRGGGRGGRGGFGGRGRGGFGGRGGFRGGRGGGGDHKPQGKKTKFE
UniProt P08581, residues 25-1390: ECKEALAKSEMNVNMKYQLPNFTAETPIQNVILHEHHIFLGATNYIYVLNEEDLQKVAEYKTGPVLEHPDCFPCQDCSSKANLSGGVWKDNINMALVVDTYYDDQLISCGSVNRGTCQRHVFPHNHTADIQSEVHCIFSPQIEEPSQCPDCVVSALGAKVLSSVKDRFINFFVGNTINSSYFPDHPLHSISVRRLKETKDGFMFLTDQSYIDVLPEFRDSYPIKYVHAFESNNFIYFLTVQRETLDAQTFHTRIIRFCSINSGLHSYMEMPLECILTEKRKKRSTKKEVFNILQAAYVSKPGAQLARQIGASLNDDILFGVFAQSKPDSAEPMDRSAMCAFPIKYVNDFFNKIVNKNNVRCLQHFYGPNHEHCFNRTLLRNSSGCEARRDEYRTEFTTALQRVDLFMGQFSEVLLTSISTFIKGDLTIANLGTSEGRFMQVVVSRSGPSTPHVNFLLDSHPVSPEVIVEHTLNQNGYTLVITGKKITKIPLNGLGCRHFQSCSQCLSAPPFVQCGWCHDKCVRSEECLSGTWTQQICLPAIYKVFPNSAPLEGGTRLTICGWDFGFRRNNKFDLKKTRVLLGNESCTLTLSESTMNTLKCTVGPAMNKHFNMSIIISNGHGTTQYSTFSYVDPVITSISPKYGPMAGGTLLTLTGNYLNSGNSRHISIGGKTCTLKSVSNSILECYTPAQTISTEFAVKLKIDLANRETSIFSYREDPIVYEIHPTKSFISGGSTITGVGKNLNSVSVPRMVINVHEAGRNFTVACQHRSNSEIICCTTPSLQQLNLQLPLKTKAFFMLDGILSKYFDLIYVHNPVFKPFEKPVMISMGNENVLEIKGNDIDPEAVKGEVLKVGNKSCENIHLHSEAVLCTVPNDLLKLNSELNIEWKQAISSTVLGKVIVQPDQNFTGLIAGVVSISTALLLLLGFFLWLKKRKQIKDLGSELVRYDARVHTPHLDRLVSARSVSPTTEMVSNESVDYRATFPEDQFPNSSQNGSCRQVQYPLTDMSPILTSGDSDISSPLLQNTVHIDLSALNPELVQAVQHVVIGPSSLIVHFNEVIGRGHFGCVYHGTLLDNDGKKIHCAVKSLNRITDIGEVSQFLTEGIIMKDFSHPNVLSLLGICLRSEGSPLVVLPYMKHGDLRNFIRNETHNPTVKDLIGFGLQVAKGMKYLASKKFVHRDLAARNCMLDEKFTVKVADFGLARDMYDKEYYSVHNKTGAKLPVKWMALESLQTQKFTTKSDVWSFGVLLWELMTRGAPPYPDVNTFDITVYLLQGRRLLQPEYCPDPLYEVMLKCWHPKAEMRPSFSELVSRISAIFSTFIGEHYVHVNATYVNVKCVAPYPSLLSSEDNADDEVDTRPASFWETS

From paper PMC7408393 come the findings set out here.

These are yes or no findings as the source states them, for the method shown. Binding seen in cells or lysates may run through a third protein. Some binding calls cover weakened binding; strength is not graded here.

“c-Met (from UniProt P08581 25-1390) (receptor)”: the binding entry is “binds”.
